Some results were stated once for a whole list of compounds, not compound by compound. Peptide text beside a SMILES is read from it.
Legend:
Mabs 19977R = conditions: purified peptide, MHB with EDTA (100 μM), 96 h, 37° C.
Method: (§1) In order to determine effects on Mabs viability, microdilution antimicrobial assays were performed in MHB.

Mabs 19977S = conditions: purified peptide, MHB with EDTA (100 μM), 96 h, 37° C.
Method: as §1

Compound	IC50 (Mabs 19977R) [µM]	IC50 (Mabs 19977S) [µM]
CC(C)[C@H](NC(=O)[C@@H](CCCCN)NC(=O)[C@H](C)NC(=O)[C@@H](C)NC(=O)[C@@H](CCCCN)NC(=O)[C@H](CO)NC(=O)[C@@H](CCCNC(=N)N)NC(=O)CNC(=O)[C@H](CC(N)=O)NC(=O)[C@H](Cc1ccccc1)NC(=O)[C@@H](N)CCC(N)=O)C(=O)N[C@@H](CC(N)=O)C(=O)N[C@@H](Cc1ccccc1)C(=O)N[C@H](Cc1c[nH]c2ccccc12)C(=O)N[C@H](CCCNC(=N)N)C(=O)N[C@H](CCCCN)C(=O)N[C@H](C)C(=O)O [ASU2001, QFNGrSkaAkVNFwrka] (HELM PEPTIDE1{Q.F.N.G.[dR].S.[dK].[dA].A.[dK].V.N.F.[dW].[dR].[dK].[dA]}$$$$V2.0)	76 to 82	< 1.8
CC(C)C[C@@H](NC(=O)[C@@H](C)NC(=O)[C@@H](CCCCN)NC(=O)[C@@H](CCCNC(=N)N)NC(=O)[C@H](Cc1ccccc1)NC(=O)[C@H](CCC(N)=O)NC(=O)[C@H](CC(N)=O)NC(=O)[C@@H](NC(=O)[C@@H](CCCCN)NC(=O)[C@@H](CCCNC(=N)N)NC(=O)[C@H](C)NC(=O)[C@@H](CCCCN)NC(=O)[C@H](CO)NC(=O)[C@@H](CC(C)C)NC(=O)CNC(=O)[C@H](Cc1ccc(O)cc1)NC(=O)[C@H](N)CCCNC(=N)N)C(C)C)C(N)=O [ASU2009, rYGlSkArkVNQFrkal] (HELM PEPTIDE1{[dR].Y.G.[dL].S.[dK].A.[dR].[dK].V.N.Q.F.[dR].[dK].[dA].[dL].[am]}$$$$V2.0)		< 1.8
CC(C)C[C@@H](NC(=O)[C@@H](C)NC(=O)CNC(=O)[C@@H](CC(C)C)NC(=O)[C@@H](CCCCN)NC(=O)[C@@H](CCCNC(=N)N)NC(=O)[C@@H](CCCNC(=N)N)NC(=O)[C@H](CC(N)=O)NC(=O)[C@H](Cc1ccc(O)cc1)NC(=O)[C@@H](CCCNC(=N)N)NC(=O)[C@H](C)NC(=O)[C@H](CO)NC(=O)[C@@H](CCCNC(=N)N)NC(=O)CNC(=O)[C@@H](N)Cc1ccc(O)cc1)C(=O)N[C@@H](CO)C(=O)NCC(=O)O [ASU2059, YGrSArYNrrklGalSG] (HELM PEPTIDE1{Y.G.[dR].S.A.[dR].Y.N.[dR].[dR].[dK].[dL].G.[dA].[dL].S.G}$$$$V2.0)	76 to 82	< 1.8

Source: patent US11752195B2, “Compositions and methods of use of synthetic peptides with Mycobacterium abscessus inhibitory activity” (priority 2021, dated 2023)
